According to publication PMC13223278:
No constants are given. Whether binding was seen depends on the method and setting. In cells and extracts the contact can be indirect. Some results given as binding are weak or reduced against the parent protein; the word gives no strength.

Sequences of proteins named here, by UniProt entry; tags and fusion partners are left off. Residues count along the entry.
UniProt P40189, residues 23-918: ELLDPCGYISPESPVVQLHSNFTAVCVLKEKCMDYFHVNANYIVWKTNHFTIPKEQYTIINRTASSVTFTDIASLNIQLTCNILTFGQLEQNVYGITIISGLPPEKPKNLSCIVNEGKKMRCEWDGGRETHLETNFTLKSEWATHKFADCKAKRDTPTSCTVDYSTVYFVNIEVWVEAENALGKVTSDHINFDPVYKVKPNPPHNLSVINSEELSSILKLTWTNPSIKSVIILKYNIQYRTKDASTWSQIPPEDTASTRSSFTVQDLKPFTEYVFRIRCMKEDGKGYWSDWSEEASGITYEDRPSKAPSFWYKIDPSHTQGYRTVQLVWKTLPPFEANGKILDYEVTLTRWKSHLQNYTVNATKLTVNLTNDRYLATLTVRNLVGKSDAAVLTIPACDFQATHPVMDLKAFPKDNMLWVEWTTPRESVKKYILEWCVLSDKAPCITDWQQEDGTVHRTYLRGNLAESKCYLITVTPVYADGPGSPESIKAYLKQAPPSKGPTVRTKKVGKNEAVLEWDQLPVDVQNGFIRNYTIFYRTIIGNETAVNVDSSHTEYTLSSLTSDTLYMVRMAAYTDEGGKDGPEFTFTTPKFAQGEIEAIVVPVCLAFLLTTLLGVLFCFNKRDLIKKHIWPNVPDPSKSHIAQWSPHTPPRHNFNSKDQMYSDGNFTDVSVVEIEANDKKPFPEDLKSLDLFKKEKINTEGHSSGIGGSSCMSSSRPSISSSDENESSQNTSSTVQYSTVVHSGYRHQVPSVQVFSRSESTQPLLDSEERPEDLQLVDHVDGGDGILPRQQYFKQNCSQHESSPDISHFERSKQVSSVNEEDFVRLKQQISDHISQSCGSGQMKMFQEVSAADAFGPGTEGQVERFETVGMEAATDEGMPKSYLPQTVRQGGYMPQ
UniProt Q08334, residues 20-325: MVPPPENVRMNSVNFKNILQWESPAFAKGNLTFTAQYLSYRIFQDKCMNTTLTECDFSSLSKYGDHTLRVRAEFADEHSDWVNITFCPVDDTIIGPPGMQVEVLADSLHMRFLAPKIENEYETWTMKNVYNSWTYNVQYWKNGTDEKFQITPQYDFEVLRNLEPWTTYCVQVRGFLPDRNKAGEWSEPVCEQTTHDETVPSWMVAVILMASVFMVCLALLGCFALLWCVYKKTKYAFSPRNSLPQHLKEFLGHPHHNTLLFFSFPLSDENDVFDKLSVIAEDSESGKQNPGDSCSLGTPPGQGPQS

Key:
[1] = target: glycoprotein 130 (human (endogenous in OKF6/TERT-2)) (UniProt P40189); experiment: co-IP; OKF6/TERT-2 cells treated without or with 50 ng/ml human IL-22 for 3 h, cross-linked with 0.1 mM DSP for 30 min, lysed; 400 ug protein with 15 ug IL22RA1, IL10RB or gp130 antibody overnight at 4 °C; Protein A/G magnetic beads; SDS-PAGE
[2] = target: interleukin-10 receptor subunit beta (human (endogenous in OKF6/TERT-2)) (UniProt Q08334); experiment: as above
[3] = target: glycoprotein 130 (human (endogenous in OKF6/TERT-2)) (UniProt P40189); experiment: proximity ligation; OKF6/TERT-2 cells on fibronectin-treated coverslips, fixed with 2% paraformaldehyde; two of the antibodies (goat anti-IL22RA, mouse anti-IL10RB, rabbit anti-gp130, 5 ug/ml each) in combination overnight at 4 °C; Duolink In Situ Red; confocal microscopy, average number of complexes per cell
[4] = target: interleukin-10 receptor subunit beta (human (endogenous in OKF6/TERT-2)) (UniProt Q08334); experiment: as above

Measured: binding

B1: interleukin-22 receptor subunit alpha-1 (receptor, UniProt Q8N6P7 16-574)
chain: HAPEDPSDLLQHVKFQSSNFENILTWDSGPEGTPDTVYSIEYKTYGERDWVAKKGCQRITRKSCNLTVETGNLTELYYARVTAVSAGGRSATKMTDRFSSLQHTTLKPPDVTCISKVRSIQMIVHPTPTPIRAGDGHRLTLEDIFHDLFYHLELQVNRTYQMHLGGKQREYEFFGLTPDTEFLGTIMICVPTWAKESAPYMCRVKTLPDRTWTYSFSGAFLFSMGFLVAVLCYLSYRYVTKPPAPPNSLNVQRVLTFQPLRFIQEHVLIPVFDLSGPSSLAQPVQYSQIRVSGPREPAGAPQRHSLSEITYLGQPDISILQPSNVPPPQILSPLSYAPNAAPEVGPPSYAPQVTPEAQFPFYAPQAISKVQPSSYAPQATPDSWPPSYGVCMEGSGKDSPTGTLSSPKHLRPKGQLQKEPPAGSCMLGGLSLQEVTSLAMEESQEAKSLHQPLGICTDRTSDPNVLHSGEEGTPQYLKGQLPLLSSVQIEGHPMSLPLQPPSRPCSPSDQGPSPWGLLESLVCPKDEAKSPAPETSDLEQPTELDSLFRGLALTVQWES
binds: all assays above
